Data from the supplement of paper PMC12873370.
Where “and” joins values, the source holds several entries; their conditions need not be identical. Equal values may be shown once. Some of the results follow. Single values are uncertain, as repeats are few or missing.

Columns and labels:
[1] = test system: MEPP (mouse ovarian epithelium Trp53/Pten KO); test: cell viability relative to untreated (fraction); higher = less growth inhibition; conditions: 5 µM; 3 days
[2] = test system: PREPP (mouse prostate epithelium Trp53/Pten KO); test: as above; conditions: 5 µM; 3 days

SMILES | cell viability [1] | cell viability [2]
CCNC(=O)CC[C@H](N)C(=O)O | 0.86 | 1
N[C@@H]1CN(c2c(F)cc3c(=O)c(C(=O)O)cn([C@@H]4C[C@@H]4F)c3c2Cl)CC12CC2 | 0.76 | 0.753
CCOC(=O)c1c(C)n(C)c2ccc(O)cc12 | 1.01 | 0.89
O=C(O)C(O)C(O)C(=O)O (configuration not stated) | 0.999 | 1.06
Cn1c(=O)c2c(ncn2CC2OCCO2)n(C)c1=O | 0.999 | 1.01
O=C(/C=C/c1ccc(O)c(O)c1)O[C@@H]1C[C@@](O)(C(=O)O)C[C@@H](O)[C@@H]1O | 1.25 | 1.25
C[n+]1cc2c3c(ccc2c2ccc4cc5c(cc4c21)OCO5)OCO3 | 0.31 | 0.235
C[C@@H]1O[C@@H](OC[C@H]2O[C@@H](Oc3c(-c4ccc(O)cc4)oc4cc(O)cc(O)c4c3=O)[C@H](O)[C@@H](O)[C@@H]2O)[C@H](O)[C@H](O)[C@H]1O | 1.13 | 0.874
N[C@@H](CCC(=O)N[C@@H](CS)C(=O)NCC(=O)O)C(=O)O | 0.938 | 0.964
COc1c(O)cc2occ(-c3ccc(O)cc3)c(=O)c2c1O | 1.16 | 0.99
O=c1cc(-c2ccccc2)oc2c(O)c(O)ccc12 | 0.993 | 0.967
OC[C@H]1O[C@@H](Oc2cc(O)cc(/C=C/c3ccc(O)cc3)c2)[C@H](O)[C@@H](O)[C@@H]1O | 1.36 | 0.973
Cl.N=C(N)NCCC[C@H](N)C(=O)O | 0.752 and 1.29 | 0.922 and 1.08
OC[C@H]1O[C@@H](Oc2ccc(O)cc2)[C@H](O)[C@@H](O)[C@@H]1O | 1.19 | 1.03
CC1(C)[C@@H](OC(=O)CCC(=O)O)CC[C@]2(C)[C@H]3C(=O)C=C4[C@@H]5C[C@@](C)(C(=O)O)CC[C@]5(C)CC[C@@]4(C)[C@]3(C)CC[C@@H]12 | 1.29 | 0.948
O=C1c2c(O)cc(O)cc2O[C@H](c2cc(O)c(O)c(O)c2)[C@H]1O | 0.857 | 1.3
O=C(O)[C@H]1O[C@@H](Oc2cc3oc(-c4ccccc4)cc(=O)c3c(O)c2O)[C@H](O)[C@@H](O)[C@@H]1O | 0.762 | 0.911
O=C(O)c1cc(=O)cc(C(=O)O)o1 | 0.904 | 0.939
CC1(C)S[C@@H]2[C@H](NC(=O)[C@H](N)c3ccccc3)C(=O)N2[C@H]1C(=O)OCOC(=O)[C@@H]1N2C(=O)C[C@H]2S(=O)(=O)C1(C)C | 0.878 and 0.998 | 0.971 and 0.99
CC(C)=CCC[C@](C)(O[C@@H]1O[C@H](CO)[C@@H](O)[C@H](O)[C@H]1O)[C@H]1CC[C@]2(C)[C@@H]1[C@H](O)C[C@@H]1[C@@]3(C)CC[C@H](O[C@@H]4O[C@H](CO)[C@@H](O)[C@H](O)[C@H]4O[C@@H]4O[C@H](CO)[C@@H](O)[C@H](O)[C@H]4O)C(C)(C)[C@@H]3CC[C@]12C | 0.997 | 0.988
OCc1ccccc1O[C@@H]1O[C@H](CO)[C@@H](O)[C@H](O)[C@H]1O | 0.862 | 1.17

SMILES | cell viability [1] | cell viability [2]
C[C@H](CCC(=O)O)[C@H]1CC[C@H]2[C@@H]3[C@H](O)C[C@@H]4C[C@H](O)CC[C@]4(C)[C@H]3C[C@H](O)[C@]12C | 1.05 and 1.15 | 0.945 and 0.993
Oc1ccc(OCc2ccccc2)cc1 | 1.01 | 0.783
COc1cc(CNC(=O)CCCCCCC(C)C)ccc1O | 0.93 | 0.953
N[C@H]1CONC1=O | 0.837 | 0.867
O=C(O)c1cccnc1C(=O)O | 0.859 | 0.931
C=C(OP(=O)(O)O)C(=O)O | 0.906 | 0.871
OC[C@H]1O[C@@H](O[C@H]2[C@H](O)[C@@H](O)[C@H](O)O[C@@H]2CO)[C@H](O)[C@@H](O)[C@H]1O | 1.1 | 0.919
N[C@@H](CCC(=O)O)C(=O)[O-].[Na+] | 0.883 | 1.09
C=CCNC1=C2C[C@@H](C)C[C@H](OC)[C@H](O)[C@@H](C)/C=C(\C)[C@H](OC(N)=O)[C@@H](OC)/C=C\C=C(/C)C(=O)NC(=CC1=O)C2=O | 0.945 | 0.444
C/C=C1/[C@H](O[C@@H]2O[C@H](CO)[C@@H](O)[C@H](O)[C@H]2O)OC=C(C(=O)OC)[C@H]1CC(=O)OCCc1ccc(O)c(O)c1 | 1.14 | 1.27
O=C(O)[C@H]1CCCN1 | 0.967 | 1.03
O=C(O)[C@H](O)Cc1ccccc1 | 0.808 | 1.28
CC12CCC(CC1=O)C2(C)C (configuration not stated) | 0.982 and 0.91 | 1.08 and 0.863
COc1ccc(C[C@H]2COC(=O)[C@@H]2Cc2ccc(O[C@@H]3O[C@H](CO)[C@@H](O)[C@H](O)[C@H]3O)c(OC)c2)cc1OC | 1.17 | 0.879
CC1CCc2c(N3CCC(O)CC3)c(F)cc3c(=O)c(C(=O)O)cn1c23 (configuration not stated) | 0.918 | 0.85
Cc1ccc2c(Cl)cc(Cl)c(O)c2n1 | 0.902 | 0.889
COc1cccc(OC)c1C(=O)O | 1.11 | 0.928
N[C@H](Cc1ccccc1)C(=O)O | 0.954 | 0.933
c1ccc2[nH]ccc2c1 | 0.901 | 1.05
NC[C@H]1O[C@H](O[C@H]2[C@H](O)[C@@H](O[C@H]3O[C@H](CO)[C@@H](O)[C@H](N)[C@H]3O)[C@H](N)C[C@@H]2N)[C@H](O)[C@@H](O)[C@@H]1O | 1.17 | 0.839

Molecules above that have sulfur (2):
SMILES | cell viability [1] | cell viability [2]
N[C@@H](CCC(=O)N[C@@H](CS)C(=O)NCC(=O)O)C(=O)O | 0.938 | 0.964
CC1(C)S[C@@H]2[C@H](NC(=O)[C@H](N)c3ccccc3)C(=O)N2[C@H]1C(=O)OCOC(=O)[C@@H]1N2C(=O)C[C@H]2S(=O)(=O)C1(C)C | 0.878 and 0.998 | 0.971 and 0.99
